Experimental data: patent US12595267B2, “Preparation method for amide compound and application thereof in field of medicine” (Shanghai Synergy Pharmaceutical Sciences Co., Ltd., priority 2019, dated 2026)

Tests used:
Format in all cases: cell-based
Pfeiffer cells = experiment: Calcein AM proliferation assay, Pfeiffer cells; conditions: Homo sapiens, read-out: Pfeiffer proliferation IC50
WSU-DLCL2 cells = experiment: Calcein AM proliferation assay, WSU-DLCL2 cells; conditions: Homo sapiens, WSUDLCL2, […], read-out: WSU-DLCL2 proliferation IC50
Karpas 422 cells = experiment: Calcein AM proliferation assay, Karpas 422 cells; conditions: Homo sapiens, read-out: Karpas422 proliferation IC50

`CCN(c1cc(-c2ccc(CN3CCOCC3)cc2)cc(C(=O)NCc2c(C)cc(C)[nH]c2=O)c1C)C1CCOCC1` [EPZ-6438, reference compound] was tested, and the IC50 (Pfeiffer cells) was 8.33 nM, the IC50 (WSU-DLCL2 cells) was 35.3 nM and the IC50 (Karpas 422 cells) was 15.7 nM.
